Earlier results in patent US20160281133A1, “STABILIZATION AND ISOLATION OF EXTRACELLULAR NUCLEIC ACIDS” (QIAGEN GMBH, priority 2013, published 2016).
Structures were worked out from names or drawings and are uncertain.

System: PARP cleavage
Details: cited from earlier work

CC(=O)N[C@@H](C)C(=O)N[C@@H](C)C(=O)N[C@H](C(=O)N[C@@H](C)C(=O)N[C@@H](CC(C)C)C(=O)N[C@@H](CC(C)C)C(=O)N1CCC[C@H]1C(=O)N[C@@H](C)C(=O)N[C@H](C(=O)N[C@@H](CC(C)C)C(=O)N[C@@H](CC(C)C)C(=O)N[C@@H](C)C(=O)N[C@@H](CC(C)C)C(=O)N[C@@H](CC(C)C)C(=O)N[C@@H](C)C(=O)N1CCC[C@H]1C(=O)N[C@@H](CC(=O)O)C(=O)N[C@@H](CCC(=O)O)C(=O)N[C@H](C(=O)N[C@H](C=O)CC(=O)O)C(C)C)C(C)C)C(C)C
IC50: 0.2 nM
